Where “and” joins values, the source holds several entries; their conditions need not be identical. Identical values can stand only once. This is one part of the list. Repeats are few or missing, and single values can be far off.
How the values were obtained:
[1] = tested on: MEPP (mouse ovarian epithelium Trp53/Pten KO); assay: cell viability relative to untreated (fraction); higher = less growth inhibition; conditions: 5 µM; 3 days
[2] = tested on: PREPP (mouse prostate epithelium Trp53/Pten KO); assay: as above; conditions: 5 µM; 3 days

SMILES | cell viability [1] | cell viability [2]
Cn1ccc(=O)n(C)c1=O | 0.86 | 1.15
Oc1cccc(O)c1O | 1.18 | 0.875
CCOC(N)=O | 1.09 | 1
Nc1nccc(=O)[nH]1 | 0.914 | 1
CC(=O)OCC(=O)[C@@]1(O)[C@H](C)C[C@H]2[C@@H]3CCC4=CC(=O)C=C[C@]4(C)[C@@]3(F)[C@@H](O)C[C@@]21C | 1.13 | 0.836
O=C(O)[C@H](O)Cc1ccccc1 | 0.808 | 1.28
C#CC1(O)CC[C@H]2[C@@H]3CCC4=CC(=O)CC[C@@H]4[C@H]3CC[C@@]21CC (some centres undefined) | 1.07 | 0.828
C[C@@H]1O[C@@H](O[C@H]2[C@H](OC(=O)[C@]34CCC(C)(C)C[C@H]3C3=CC[C@@H]5[C@@]6(C)C[C@H](O)[C@H](O[C@@H]7O[C@H](CO)[C@@H](O)[C@H](O)[C@H]7O)C(CO)(CO)[C@@H]6CC[C@@]5(C)[C@]3(C)C[C@H]4O)OC[C@H](O)[C@@H]2O)[C@H](O)[C@H](O)[C@H]1O[C@@H]1OC[C@@H](O)[C@H](O[C@@H]2OC[C@](O)(CO)[C@H]2O)[C@H]1O | 0.833 | 0.819
C=CC1=C(C(=O)O)N2C(=O)[C@@H](NC(=O)/C(=N\O)c3csc(N)n3)[C@H]2SC1 | 1.15 | 0.919
CO[C@H]1C[C@H](O[C@H]2[C@H](C)O[C@@H](O[C@@H]3/C(C)=C/C[C@@H]4C[C@@H](C[C@]5(C=C[C@H](C)[C@@H](C6CCCCC6)O5)O4)OC(=O)[C@@H]4C=C(C)[C@@H](O)[C@H]5OC/C(=C\C=C\[C@@H]3C)[C@]54O)C[C@@H]2OC)O[C@@H](C)[C@@H]1O | 1.06 | 0.178
c1coc(CNc2ncnc3[nH]cnc23)c1 | 1.12 | 0.934
Oc1cccc(O)c1 | 1.58 | 0.941
CN[C@H](CC(C)C)C(=O)N[C@H]1C(=O)N[C@@H](CC(N)=O)C(=O)N[C@H]2C(=O)N[C@H]3C(=O)N[C@H](C(=O)N[C@H](C(=O)O)c4cc(O)cc(O)c4-c4cc3ccc4O)[C@H](O)c3ccc(c(Cl)c3)Oc3cc2cc(c3O[C@@H]2O[C@H](CO)[C@@H](O)[C@H](O)[C@H]2O[C@H]2C[C@](C)(N)[C@H](O)[C@H](C)O2)Oc2ccc(cc2Cl)[C@H]1O | 0.896 | 0.916
Cc1ccc(C=O)o1 | 1.05 | 0.943
O=C(O)[C@H]1CSC(c2nc3ccc(O)cc3s2)=N1 | 0.879 and 1.1 | 0.999 and 0.902
NCCc1ccc(O)c(O)c1 | 1.09 | 0.943

SMILES | cell viability [1] | cell viability [2]
O=C(O)/C=C/C(=O)O | 1.09 | 0.919
Nc1nc(Cl)nc2c1ncn2[C@H]1C[C@H](O)[C@@H](CO)O1 | 0.916 | 1.03
Oc1c(Br)cc(Br)c2cccnc12 | 1.46 | 0.875
CC(C)=CCC[C@](C)(O[C@@H]1O[C@H](CO[C@@H]2O[C@H](CO)[C@@H](O)[C@H](O)[C@H]2O)[C@@H](O)[C@H](O)[C@H]1O)[C@H]1CC[C@]2(C)[C@@H]1[C@H](O)C[C@@H]1[C@@]3(C)CC[C@H](O[C@@H]4O[C@H](CO)[C@@H](O)[C@H](O)[C@H]4O[C@@H]4O[C@H](CO)[C@@H](O)[C@H](O)[C@H]4O)C(C)(C)[C@@H]3CC[C@]12C | 1.16 | 1.06
CSCCC(N)C(=O)O (centres undefined) | 1 | 1.1
Nc1ccn([C@H]2C[C@H](O)[C@@H](COP(=O)(O)O)O2)c(=O)n1 | 0.911 | 0.937
CSSSC | 1.06 | 1.02
O=C(O)CCCC(=O)O | 0.9 | 1.09
O=P(O)(O)O[C@H]1[C@H](OP(=O)(O)O)[C@@H](OP(=O)(O)O)[C@H](OP(=O)(O)O)[C@@H](OP(=O)(O)O)[C@H]1OP(=O)(O)O | 1 | 1.07
CCCCCC=CC(=O)CCc1ccc(O)c(OC)c1 | 0.868 | 1.08
Cc1cccc(N(C)C(=S)Oc2ccc3ccccc3c2)c1 | 0.93 | 0.914
O=C(O)CCCCCC(=O)O | 0.905 | 0.976
Cc1cc(C)n(C)n1 | 0.928 | 1.1
O=C1O[C@@H]2[C@@H](OC(=O)c3cc(O)c(O)c(O)c3-c3c1cc(O)c(O)c3O)[C@H](O)O[C@@H]1COC(=O)c3cc(O)c(O)c(O)c3-c3c(O)c(O)c4oc(=O)c5c(c(O)c(O)c6oc(=O)c3c4c65)-c3c(cc(O)c(O)c3O)C(=O)O[C@@H]21 | 1.28 | 0.794
CC(C)(O)CC(=O)O | 0.957 | 0.868
C[C@]12C[C@H](O)[C@H]3[C@@H](CCC4=CC(=O)CC[C@@]43C)[C@@H]1CC[C@@H]2C(=O)CO | 0.986 | 0.802

Reference: the supplement of paper PMC12873370
